Assay results as given in PubChem BioAssay AID504635 (The Scripps Research Institute Molecular Screening Center, 2011).
Most of the hits are listed elsewhere, so they are rarer here than in the full data. Calls of active or inactive are those of the source. Rule as the data show it: active = inhibition above about 18%; inactive = the rest.

Molecular target: Troponin I, cardiac muscle (Homo sapiens) + Troponin T, cardiac muscle (Homo sapiens) + Troponin C, slow skeletal and cardiac muscles (Homo sapiens) (UniProt P19429+P45379+P63316)
Test: calcium desensitizers of cardiac thin filaments – biochemical, fluorescence readout, confirmation (AID 504635)
Conditions: reconstituted cardiac thin filaments, calcium sensitivity fluorescence; at 7.15 µM; active compounds read high

For `CN1[C@@H]2CC[C@H]1CC(OC(=O)C(O)c1ccccc1)C2` (stereo partly specified), the inhibition was inactive: -2.73%.
